This is one part of the list. Construct or isoform of the protein are uncertain.

The target in the assay is T1, ETS1 (UniProt P14921).
T1 sequence: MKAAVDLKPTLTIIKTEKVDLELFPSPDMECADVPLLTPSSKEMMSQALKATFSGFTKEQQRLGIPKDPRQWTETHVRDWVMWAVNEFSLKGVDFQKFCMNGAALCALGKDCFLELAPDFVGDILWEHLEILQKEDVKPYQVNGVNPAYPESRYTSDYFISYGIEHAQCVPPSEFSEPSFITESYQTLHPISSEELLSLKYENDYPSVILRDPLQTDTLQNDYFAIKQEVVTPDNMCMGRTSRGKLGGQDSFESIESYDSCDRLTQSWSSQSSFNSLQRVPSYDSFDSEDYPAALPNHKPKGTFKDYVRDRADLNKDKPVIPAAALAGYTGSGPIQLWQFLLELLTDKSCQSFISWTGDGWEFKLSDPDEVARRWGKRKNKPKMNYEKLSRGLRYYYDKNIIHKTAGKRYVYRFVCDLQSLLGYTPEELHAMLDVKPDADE
Nature of the assay: DAPPL (digital affinity profiling via proximity ligation, sequencing). The conditions noted are these: 10 mM Tris-HCl pH 7.5, 50 mM NaCl, 1 mM DTT, 4% glycerol, room temperature, 30 min; GST-TFs on glutathione beads, 16-mer random dsDNA library, 0.1% …; high values mean tight binding; double strand, one strand shown; scale: fold enrichment (6-mer frequency, TF over GST control).
For the sequence TTGTCT, the binding signal worked out at 1.15.

For the sequence AACATA, the binding signal turned out to be 1.29.

Consider TTGAAC, for which the binding signal amounted to 1.06.

CCTGCA came in with a binding signal of 1.24.

Turning to ATGCAT, the binding signal was 1.11.

In turn, GGTATA showed a binding signal of 1.07.

In turn, TTCTTC displayed a binding signal of 1.94.

In turn, AAGTCC registered a binding signal of 1.24.

TGACTC showed a binding signal of 1.37.

With TCTAGC, the binding signal was determined as 1.23.

On to GCCAAT, for which the binding signal stood at 1.06.

The sequence AACGCT showed a binding signal of 1.2.

Regarding AACGTT, the binding signal was 1.08.

For CTTCAA, the binding signal came out at 1.38.

For CACGAA, the binding signal is 1.14.

GATGCC had a binding signal of 1.4.

As to ATTTAC, the binding signal amounted to 1.33.

Sequence GAATTC came in with a binding signal of 1.43.

As to TCCACA, the binding signal was found to be 1.27.

Sequence TGCCTG came in with a binding signal of 1.27.

Take CGACTA: the binding signal amounted to 1.26.

Take CTGGTT: the binding signal came to 1.39.

In turn, ATACGT yielded a binding signal of 1.12.

CTTTTA yielded a binding signal of 1.3.

CCCACG registered a binding signal of 1.25.

In turn, TAAGAT came in with a binding signal of 1.18.

As for TTACAC, the binding signal stood at 1.25.

Regarding AAGGTA, the binding signal was found to be 1.15.

The sequence AGCTCC displayed a binding signal of 1.24.

The sequence AATTCC registered a binding signal of 1.95.

TGGTAT returned a binding signal of 1.36.

TGCACG had a binding signal of 1.13.

Regarding TCGATC, the binding signal was 1.2.

In the case of AACTAA, the binding signal stood at 1.38.

With CTTTCT, the binding signal was found to be 1.31.

In the case of ATATTA, the binding signal was determined as 1.09.

For the sequence TAATAA, the binding signal came to 1.18.

Sequence CACGCC came in with a binding signal of 1.23.

Consider GCTGAT, for which the binding signal was determined as 1.08.

The sequence TTAATT returned a binding signal of 1.43.

(Values after PMC7862700.)
